From patent US20240325493A1, “REGULATOR OF TUMOR CELL FUNCTIONS AND USES THEREOF” (Washington University, priority 2023, published 2024)
At least one structure is not confirmed: it was looked up by name or label, or the drawing left a doubt.

How the values were obtained:
[1] = system: Zbtb46 in MCEC (mouse cardiac endothelial cells); assay: Zbtb46 mRNA expression in MCEC cells treated with tumor-derived factors; assay type: cell-based; conditions: in vitro, 24 hours
Description: FIG. 13A is a set of graphs of Zbtb46 mRNA expression in MCEC cells, with loading control b-Actin (left) and Gapdh (right), treated with PBS or tumor-conditioned media (TCM) for 24 hours. n≥3/group. One-way ANOVA with Dunnett's test.
(§1) Quantitative real-time reverse transcription PCR (qRT-PCR) was performed. cDNA was prepared with qScript™ CDNA SuperMix (Cat: 101414-106, VWR) according to the manufacturer's protocol. Gene expression was measured by quantitative real-time RT-PCR using primers.

[2] = system: Zbtb46 in bone marrow-derived dendritic cells (BMDC); assay: Zbtb46 mRNA expression in bone marrow-derived dendritic cells treated with tumor-derived factors; assay type: cell-based, mouse; conditions: in vitro, 24 hours, vs PBS
Description: FIG. 13B is a graph of Zbtb46 mRNA expression in bone marrow-derived dendritic cells (BMDC) treated with PBS, prostaglandin E2 (PGE2), vascular endothelial growth factor (VEGF), or retinoic acid (RA) for 24 hours. n≥3/group. One-way ANOVA with Dunnett's test.
as §1

## CC1=C(/C=C/C(C)=C/C=C/C(C)=C/C(=O)O)C(C)(C)CCC1 [RA, retinoic acid]
[1]
  Zbtb46 expression in EC: downregulated
[2]
  Zbtb46 expression in DC: downregulated
